Assay results published in PubChem BioAssay AID2685 (National Center for Advancing Translational Sciences (NCATS), 2010).
Hit rate of the full screen: of about 320,000 compounds, about 2,100 (0.66%) were called active. This list was built around the results that the source calls inconclusive (neither active nor inactive); the mix of calls is not that of the screen. Calls follow the shape of the dose curve; as a rule, active = well fitted inhibition curve with a large enough effect in the signal ratio, with a control signal flat (not every such curve was filed as active); inconclusive = small, poorly fitted or top-dose-only effect, or effect the other way, or a change in a side signal; inactive = flat fitted curve, though single readings scatter; the % refers to the signal ratio. A potency beside an inconclusive call is a rough fit, not a confirmed value.

test: qHTS Assay for Lipid Storage Modulators in Drosophila S3 Cells; conditions: BODIPY lipid droplet fluorescence, 18-24 h, cells fed with added oleic acid; lipid storage change, negative = inhibition: at 46.1 µM (top of the series) unless noted
Summary of the method: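 Drosophila S3 cells loaded with oleic acid (400 uM, as added) and compounds at several concentrations; lipid droplets imaged by 488-nm laser-scanning cytometry, 500–530 nm intensity and object ratio to cell channel. Percent activity normalized to 20 uM Triacsin C.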
% is scaled to controls: 0 for no effect and ±100 for the full control effect; potency is read from the fitted curve at half-maximal effect.

Row | SMILES | lipid storage change, negative = inhibition | Potency | outcome
1 | CSc1nc(-c2ccco2)nn1C(=O)c1ccccc1 | inconclusive: 6.07% |  | 
2 | Cc1ccc(C23CC4CC(CC(C(=O)NC(C(=O)O)C(C)C)(C4)C2)C3)cc1 (stereo unspecified) | inconclusive: 17.9% |  | 
3 | COc1cccc(NC(=O)CN(C)C(=O)c2ccc3c(c2)S(=O)(=O)N=C2CCCCCN23)c1 | inconclusive: 10.8% |  | 
4 | O=C(CNCC1CCCCC1)Nc1ccc(N2CCCCC2)cc1 | inconclusive: 103% |  | 
5 | CCOc1ccc(N(CC(=O)NC2CCC(C)CC2)S(=O)(=O)c2c(C)noc2C)cc1 (stereo unspecified) |  | inconclusive: 29.1 µM [falling, single point] | 
6 | Cc1ccc(NC(=O)c2cc(S(=O)(=O)N3CCOCC3)cs2)cc1 | inconclusive: 21.7% |  | 
7 | Cc1ccc(C(=O)N/C(=C\c2ccco2)C(=O)NCCN2CCCCC2)cc1C | inconclusive: -10.5% |  | 
8 | CCOCCOC(=O)Cn1cnc2scc(-c3ccc(C)cc3)c2c1=O |  | inconclusive: 4.11 µM [activator, single point] | 
9 | CC(C)n1cc(/C=N/NC(=O)COc2cccc3cccnc23)c2ccccc21 |  | inconclusive: 18.4 µM [cytotoxic, single point] | 
10 | CC1=C(C(=O)N2CCCC(N3CCN(c4cccc(Cl)c4)CC3)C2)OCCO1 (stereo unspecified) |  | inconclusive: 7.31 µM [activator, partial curve] | 
11 | c1ccc(NCc2cccc3ccccc23)nc1 | inconclusive: 4.3% |  | 
12 | CC1=C/C(=N\NC(=S)NCCc2ccccc2)CC(C)(C)C1 | inconclusive: 12% |  | 
13 | CCN(CC)S(=O)(=O)c1cccc(NC(=O)c2cc(-c3cccs3)nn2-c2ccccc2)c1 |  | inconclusive: 0.461 µM [falling, partial curve, poor fit] | 
14 | Cc1cc(C)n(CC(=O)N/N=C/c2ccc(C)o2)n1 | inconclusive: -4.21% |  | 
15 | Cc1nn(-c2ccccc2)c(C)c1C(=O)OCC(=O)NC12CC3CC(CC(C3)C1)C2 |  | inconclusive: 29.1 µM [cytotoxic, single point] | 
16 | CC(=O)c1cc(CN2CCN(C3CCN(C(C)C)CC3)C(CCO)C2)cs1 (stereo unspecified) | inconclusive: -27.4% |  | 
17 | CN(C)C(=O)c1c([N+](=O)[O-])ncn1C | inconclusive: -3.11% |  | 
18 | CCOC(=O)N1CCN(c2c(N3CC=C(c4ccccc4)CC3)c(=O)c2=O)CC1 | inconclusive: 29% |  | 
19 | CC1=CC(C)(C)Nc2ccc(OC(=O)C(C)N3C(=O)c4ccccc4C3=O)cc21 (stereo unspecified) | inconclusive: -13.3% |  | 
20 | Cc1cc(=O)oc2c(C)c(OCC(=O)N3CCN(c4cccc(Cl)c4)CC3)ccc12 |  | inconclusive: 6.51 µM [activator, single point] | 
21 | COc1ccc(C(CNC(=O)c2oc3ccc(F)cc3c2C)N2CCCCC2)cc1 (stereo unspecified) |  | inconclusive: 0.0731 µM [activator, single point] | 
22 | CCCC(=O)Nc1ccc(Cl)c(NC(=O)C(C)(C)C)c1 |  | inconclusive: 16.4 µM [activator, partial curve] | 
23 | CC1CCCCN1C(=O)C1COc2ccccc2O1 (stereo unspecified) |  | inconclusive: 2.59 µM [falling, full curve, poor fit] | 
24 | Cc1cc(/C=c2\sc3nc4ccccc4n3c2=O)c(C)n1-c1ccc(C(=O)O)cc1 | inconclusive: 13.3% [at 9.22 µM] |  | 
25 | Cn1c2ccccc2c(=O)c2cc(C#Cc3ccccn3)ccc21 |  |  | inactive [at 46.1 µM]
26 | Cc1[nH]c(=O)c(C(=O)c2cc(Cl)ccc2O)cc1C(=O)O | inconclusive: 11.8% |  | 

Row | SMILES | lipid storage change, negative = inhibition | Potency | outcome
27 | CC(C)(C)NC(=O)C(c1ccc(O)cc1)N(C(=O)CCC(=O)Nc1nccs1)c1ccc(F)cc1 (stereo unspecified) | inconclusive: 9.27% |  | 
28 | O=C(COC(=O)Cc1ccc(F)cc1)NC1CCCC1 | inconclusive |  | 
29 | COc1ccc(NC(=O)C2CCC(C)(C(=O)O)C2(C)C)cc1 (stereo unspecified) | inconclusive: -162% |  | 
30 | CCOc1ccc(NC(=S)NN(C)C(=S)Nc2ccc(OCC)cc2)cc1 | inconclusive: 3.41% |  | 
31 | CC(=O)OCCCN1C(=O)c2ccc(Br)cc2C1=O | inconclusive: 2.79% |  | 
32 | CCN(CC)CC(=O)Nc1c(Br)ccc2c1OCO2 |  | inconclusive: 5.8 µM [falling, full curve, poor fit] | 
33 | COc1cc2cc(C(c3nnnn3C(C)(C)C)N3CCC(C)CC3)c(=O)[nH]c2cc1OC (stereo unspecified) | inconclusive: 110% |  | 
34 | COC(=O)N/N=C\c1ccc(OC/C=C/c2ccccc2)cc1 | inconclusive: 4.8% |  | 
35 | C=CCS/C(N)=N\N=C\c1cc(Br)cc([N+](=O)[O-])c1O | inconclusive: -7.86% |  | 
36 | COCCCNC(=O)CCNS(=O)(=O)c1ccc(C)cc1 | inactive: 8.63% |  | 
37 | COc1ccc(-c2csc3ncnc(NCCN4CCOCC4)c23)cc1 | inconclusive: 81.8% |  | 
38 | CCC1SC2=NCCN2C1(O)c1ccc(Cl)cc1 (stereo unspecified) |  | inconclusive: 0.411 µM [falling, partial curve] | 
39 | O=C1c2ccccc2C(=O)N1CC1c2ccccc2CCN1S(=O)(=O)c1ccccc1 (stereo unspecified) | inconclusive: -47.1% |  | 
40 | O=C(CSc1ccc2nnc(CCNC(=O)c3ccccc3)n2n1)Nc1ccc(F)cc1F |  | inconclusive: 1.84 µM [falling, partial curve, poor fit] | 
41 | CCOC(=O)C1=C(COC(=O)COc2ccccc2OCC)NC(=O)NC1C (stereo unspecified) | inconclusive |  | 
42 | CC1CC(C)CN(C(=O)c2ccc(S(=O)(=O)N3CCCCC3)cc2)C1 (stereo unspecified) |  | inconclusive: 23.1 µM [falling, single point] | 
43 | Cc1nn(-c2ccc(F)cc2)c(C)c1CN1CCN(CCC(C)C)C(CCO)C1 (stereo unspecified) | inactive: 3.51% |  | 
44 | O=C(CC1SC(=Nc2ccccc2)N(CCc2ccccn2)C1=O)Nc1ccc(F)cc1 (stereo unspecified) |  | inconclusive: 32.6 µM [activator, single point] | 
45 | O=C(c1cc(Br)c(Br)s1)N1CCOCC1 | inconclusive: 0.325% |  | 
46 | O=[N+]([O-])c1cc(S(=O)(=O)N2CCCC2)ccc1N/N=C/c1ccccn1 |  | inconclusive: 29.1 µM [activator, single point] | 
47 | CC(C)c1ccccc1NC(=S)NCCCn1ccnc1 | inconclusive: 7.62% |  | 
48 | COc1ccc(NC(=O)c2oc3ccccc3c2NC(=O)C2CC2)cc1 | inconclusive: 8.14% |  | 
49 | CSC1=NCCN1C(=O)Cc1cccc2ccccc12 | inconclusive: 8.21% |  | 
50 | COc1ccc(CSc2ncnc3sccc23)cc1F | inconclusive: 7.97% |  | 
51 | C=C1[C@@H](OC(C)=O)CC[C@]2(C)[C@@H]1C[C@@H]1C[C@H](OC(C)=O)C(C)=C([C@@H](OC(C)=O)[C@@H]2OC(C)=O)C1(C)C | inconclusive: 11.5% |  | 
52 | O=S(=O)(Nc1ccc(C(F)(F)F)cc1)c1cnc[nH]1 | inconclusive: 65.3% |  | 

Compounds 29 through 49 of the list above:
Row | SMILES | lipid storage change, negative = inhibition | Potency | outcome
29 | COc1ccc(NC(=O)C2CCC(C)(C(=O)O)C2(C)C)cc1 (stereo unspecified) | inconclusive: -162% |  | 
30 | CCOc1ccc(NC(=S)NN(C)C(=S)Nc2ccc(OCC)cc2)cc1 | inconclusive: 3.41% |  | 
31 | CC(=O)OCCCN1C(=O)c2ccc(Br)cc2C1=O | inconclusive: 2.79% |  | 
32 | CCN(CC)CC(=O)Nc1c(Br)ccc2c1OCO2 |  | inconclusive: 5.8 µM [falling, full curve, poor fit] | 
33 | COc1cc2cc(C(c3nnnn3C(C)(C)C)N3CCC(C)CC3)c(=O)[nH]c2cc1OC (stereo unspecified) | inconclusive: 110% |  | 
34 | COC(=O)N/N=C\c1ccc(OC/C=C/c2ccccc2)cc1 | inconclusive: 4.8% |  | 
35 | C=CCS/C(N)=N\N=C\c1cc(Br)cc([N+](=O)[O-])c1O | inconclusive: -7.86% |  | 
36 | COCCCNC(=O)CCNS(=O)(=O)c1ccc(C)cc1 | inactive: 8.63% |  | 
37 | COc1ccc(-c2csc3ncnc(NCCN4CCOCC4)c23)cc1 | inconclusive: 81.8% |  | 
38 | CCC1SC2=NCCN2C1(O)c1ccc(Cl)cc1 (stereo unspecified) |  | inconclusive: 0.411 µM [falling, partial curve] | 
39 | O=C1c2ccccc2C(=O)N1CC1c2ccccc2CCN1S(=O)(=O)c1ccccc1 (stereo unspecified) | inconclusive: -47.1% |  | 
40 | O=C(CSc1ccc2nnc(CCNC(=O)c3ccccc3)n2n1)Nc1ccc(F)cc1F |  | inconclusive: 1.84 µM [falling, partial curve, poor fit] | 
41 | CCOC(=O)C1=C(COC(=O)COc2ccccc2OCC)NC(=O)NC1C (stereo unspecified) | inconclusive |  | 
42 | CC1CC(C)CN(C(=O)c2ccc(S(=O)(=O)N3CCCCC3)cc2)C1 (stereo unspecified) |  | inconclusive: 23.1 µM [falling, single point] | 
43 | Cc1nn(-c2ccc(F)cc2)c(C)c1CN1CCN(CCC(C)C)C(CCO)C1 (stereo unspecified) | inactive: 3.51% |  | 
44 | O=C(CC1SC(=Nc2ccccc2)N(CCc2ccccn2)C1=O)Nc1ccc(F)cc1 (stereo unspecified) |  | inconclusive: 32.6 µM [activator, single point] | 
45 | O=C(c1cc(Br)c(Br)s1)N1CCOCC1 | inconclusive: 0.325% |  | 
46 | O=[N+]([O-])c1cc(S(=O)(=O)N2CCCC2)ccc1N/N=C/c1ccccn1 |  | inconclusive: 29.1 µM [activator, single point] | 
47 | CC(C)c1ccccc1NC(=S)NCCCn1ccnc1 | inconclusive: 7.62% |  | 
48 | COc1ccc(NC(=O)c2oc3ccccc3c2NC(=O)C2CC2)cc1 | inconclusive: 8.14% |  | 
49 | CSC1=NCCN1C(=O)Cc1cccc2ccccc12 | inconclusive: 8.21% |  | 

The list goes on:

Row | SMILES | lipid storage change, negative = inhibition | Potency | outcome
53 | COc1cccc(-c2cc(C(=O)N3CCN(S(=O)(=O)c4ccccc4)CC3)[nH]n2)c1 |  | inconclusive: 3.66 µM [falling, single point] | 
54 | COc1ccc(Cl)cc1NC(=O)COC(=O)/C=C/c1c(C)nn(C2CCS(=O)(=O)C2)c1Cl (stereo unspecified) | inconclusive: -58% |  | 
55 | CC(=O)c1ccc(N(C)C)c2c(N(C)C)cccc12 | inconclusive: -40.2% |  | 
56 | CCc1ccccc1NC(=O)c1sc2nc(C)cc(C)c2c1N | inconclusive: -62% |  | 
57 | NS(=O)(=O)c1ccc(CCNC(=O)CN2CCCCC2)cc1 | inconclusive: -22.3% |  | 
58 | Cc1ccccc1OCCNC(=O)/C=C/c1ccc([N+](=O)[O-])cc1 |  | inconclusive: 1.3 µM [activator, partial curve, poor fit] | 
59 | Cc1n[nH]c(C)c1CN(C)C(=O)C1CCC(=O)N(CC2CCCCC2)C1 (stereo unspecified) |  | inconclusive: 29.1 µM [activator, partial curve, poor fit] | 
60 | CC1CCCCC1NC(=O)C1CCN(C(=O)c2sccc2-n2cccc2)CC1 (stereo unspecified) | inconclusive: 23.7% |  | 
61 | O=C(CNC(=O)C1COc2ccccc2O1)Nc1cc(Cl)ccc1Cl (stereo unspecified) | inconclusive: -62.9% |  | 
62 | CCOc1ccc(CN(C)C(=O)Cc2c[nH]c3ccccc23)cc1 | inconclusive: 15.2% |  | 
63 | CC1=CC2=NC(=O)/C(=C\c3cccn3CCOc3ccccc3)C(=N)N2O1 | inconclusive: -59% |  | 
64 | CC1c2cc3c(cc2CCN1C(=O)c1ccc(Br)cc1)OCCCO3 (stereo unspecified) | inconclusive: 16.5% |  | 
65 | CCOc1ccccc1NC(=S)NC(=O)CCCOc1ccc(Cl)cc1Cl | inconclusive: 2.34% |  | 
66 | CC(C)c1ccc(S(=O)(=O)N2CCN(C(=O)CN3C(=O)NC4(CCCCC4)C3=O)CC2)cc1 | inconclusive |  | 
67 | O=C(NC1CCCC1)C(c1ccccc1)N(C(=O)c1csnn1)c1ccccc1F (stereo unspecified) | inconclusive: 235% |  | 
68 | C=C(C)c1cccc(C(C)(C)NC(=O)NCc2ccc(OC)cc2)c1 | inconclusive: 8.2% |  | 
69 | COc1ccccc1CNC(=O)COc1ccc([N+](=O)[O-])cc1 |  | inconclusive: 0.517 µM [activator, full curve] | 
70 | O=S(=O)(c1ccc(-c2ccno2)s1)N1CCCCC1 | inconclusive: -36.5% [at 0.00295 µM] |  | 
71 | O=C(O)c1ccc(O)cc1O |  | inconclusive: 1.16 µM [activator, single point] | 
72 | CN(C)S(=O)(=O)c1cccc(NC(=O)COc2ccc(C(=O)c3ccccc3)cc2)c1 | inconclusive: -134% |  | 
73 | CN(C)/C=C1\N=C(c2cccs2)OC1=O |  | inconclusive: 6.51 µM [activator, partial curve] | 
74 | CCCCn1c(SCc2nc3ccccc3s2)nc2ccccc2c1=O | inconclusive: 8.68% |  | 
75 | CCN(Cc1nc(-c2ccccc2)no1)C(=O)c1ccoc1C |  | inconclusive: 0.651 µM [activator, full curve, poor fit] | 
76 | Cc1nc(C)n(C(C)CNS(=O)(=O)c2ccc(C)c(C)c2)n1 (stereo unspecified) |  | inconclusive: 6.51 µM [activator, single point] | 
